Source: PMC9839780
No constants are given. Whether binding was seen depends on the method and setting. Binding seen in cells or lysates may run through a third protein. Some binding calls cover weakened binding; strength is not graded here. Where a sequence is shown, tags or fusion partners need not be part of it.

Protein sequences, listed by entry. Tags and fused reporters are not part of them.
UniProt Q9UN81: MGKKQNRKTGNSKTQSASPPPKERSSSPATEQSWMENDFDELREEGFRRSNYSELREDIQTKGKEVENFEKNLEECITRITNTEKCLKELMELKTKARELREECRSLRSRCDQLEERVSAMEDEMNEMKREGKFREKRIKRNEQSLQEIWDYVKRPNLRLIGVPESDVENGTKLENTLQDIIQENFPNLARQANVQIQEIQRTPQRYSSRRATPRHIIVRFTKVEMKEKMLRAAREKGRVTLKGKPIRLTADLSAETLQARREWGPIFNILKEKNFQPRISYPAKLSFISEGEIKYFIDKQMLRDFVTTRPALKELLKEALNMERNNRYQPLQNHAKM
UniProt Q5H9U9: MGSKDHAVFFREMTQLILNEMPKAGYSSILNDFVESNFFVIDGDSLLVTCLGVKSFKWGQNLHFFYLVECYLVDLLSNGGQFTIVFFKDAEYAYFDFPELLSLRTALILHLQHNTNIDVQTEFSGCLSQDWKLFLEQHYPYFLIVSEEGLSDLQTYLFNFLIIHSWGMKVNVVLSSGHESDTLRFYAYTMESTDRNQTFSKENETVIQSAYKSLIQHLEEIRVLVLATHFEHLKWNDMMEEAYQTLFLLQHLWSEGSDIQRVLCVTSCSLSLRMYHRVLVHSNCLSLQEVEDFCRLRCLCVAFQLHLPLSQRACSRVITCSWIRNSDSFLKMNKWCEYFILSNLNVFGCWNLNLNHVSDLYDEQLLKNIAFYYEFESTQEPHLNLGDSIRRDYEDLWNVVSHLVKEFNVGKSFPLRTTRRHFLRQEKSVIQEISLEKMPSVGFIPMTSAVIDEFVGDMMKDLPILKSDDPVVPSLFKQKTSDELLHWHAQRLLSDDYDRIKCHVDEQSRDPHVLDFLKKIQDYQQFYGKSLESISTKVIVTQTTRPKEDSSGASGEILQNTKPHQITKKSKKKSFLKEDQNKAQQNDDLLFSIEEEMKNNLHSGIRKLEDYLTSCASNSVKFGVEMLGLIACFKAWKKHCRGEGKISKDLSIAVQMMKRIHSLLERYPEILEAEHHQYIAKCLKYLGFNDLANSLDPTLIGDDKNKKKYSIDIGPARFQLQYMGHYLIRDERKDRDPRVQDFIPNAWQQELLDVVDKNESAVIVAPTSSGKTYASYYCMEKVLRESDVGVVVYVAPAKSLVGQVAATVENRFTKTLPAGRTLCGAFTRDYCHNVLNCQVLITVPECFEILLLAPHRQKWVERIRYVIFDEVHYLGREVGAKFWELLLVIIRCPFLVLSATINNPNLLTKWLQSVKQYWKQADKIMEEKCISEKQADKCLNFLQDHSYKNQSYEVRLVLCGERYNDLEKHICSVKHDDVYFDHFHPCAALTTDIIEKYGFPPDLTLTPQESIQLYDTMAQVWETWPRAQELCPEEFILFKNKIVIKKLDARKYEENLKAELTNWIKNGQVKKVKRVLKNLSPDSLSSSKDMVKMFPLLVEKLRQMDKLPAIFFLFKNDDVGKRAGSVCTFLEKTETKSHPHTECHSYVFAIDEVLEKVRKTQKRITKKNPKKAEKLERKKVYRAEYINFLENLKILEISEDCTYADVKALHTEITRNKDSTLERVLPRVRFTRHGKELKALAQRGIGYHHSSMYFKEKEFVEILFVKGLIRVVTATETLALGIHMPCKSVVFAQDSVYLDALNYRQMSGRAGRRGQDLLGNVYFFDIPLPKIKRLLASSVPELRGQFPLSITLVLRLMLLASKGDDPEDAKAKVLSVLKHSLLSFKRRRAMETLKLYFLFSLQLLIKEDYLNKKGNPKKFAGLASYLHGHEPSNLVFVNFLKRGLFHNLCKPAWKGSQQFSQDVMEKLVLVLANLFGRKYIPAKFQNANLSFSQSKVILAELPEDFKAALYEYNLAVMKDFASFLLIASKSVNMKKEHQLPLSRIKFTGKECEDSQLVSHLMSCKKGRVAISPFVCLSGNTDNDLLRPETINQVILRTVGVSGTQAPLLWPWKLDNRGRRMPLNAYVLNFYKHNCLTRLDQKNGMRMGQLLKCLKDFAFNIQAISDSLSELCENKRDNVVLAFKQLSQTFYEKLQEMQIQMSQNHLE

B1: HERC5-3xMYC fusion protein (pALAF023_hHERC5-3xMYC) (protein, UniProt Q9UII4 1-1024)
chain: MERRSRRKSRRNGRSTAGKAAATQPAKSPGAQLWLFPSAAGLHRALLRRVEVTRQLCCSPGRLAVLERGGAGVQVHQLLAGSGGARTPKCIKLGKNMKIHSVDQGAEHMLILSSDGKPFEYDNYSMKHLRFESILQEKKIIQITCGDYHSLALSKGGELFAWGQNLHGQLGVGRKFPSTTTPQIVEHLAGVPLAQISAGEAHSMALSMSGNIYSWGKNECGQLGLGHTESKDDPSLIEGLDNQKVEFVACGGSHSALLTQDGLLFTFGAGKHGQLGHNSTQNELRPCLVAELVGYRVTQIACGRWHTLAYVSDLGKVFSFGSGKDGQLGNGGTRDQLMPLPVKVSSSEELKLESHTSEKELIMIAGGNQSILLWIKKENSYVNLKRTIPTLNEGTVKRWIADVETKRWQSTKREIQEIFSSPACLTGSFLRKRRTTEMMPVYLDLNKARNIFKELTQKDWITNMITTCLKDNLLKRLPFHSPPQEALEIFFLLPECPMMHISNNWESLVVPFAKVVCKMSDQSSLVLEEYWATLQESTFSKLVQMFKTAVICQLDYWDESAEENGNVQALLEMLKKLHRVNQVKCQLPESIFQVDELLHRLNFFVEVCRRYLWKMTVDASENVQCCVIFSHFPFIFNNLSKIKLLHTDTLLKIESKKHKAYLRSAAIEEERESEFALRPTFDLTVRRNHLIEDVLNQLSQFENEDLRKELWVSFSGEIGYDLGGVKKEFFYCLFAEMIQPEYGMFMYPEGASCMWFPVKPKFEKKRYFFFGVLCGLSLFNCNVANLPFPLALFKKLLDQMPSLEDLKELSPDLGKNLQTLLDDEGDNFEEVFYIHFNVHWDRNDTNLIPNGSSITVNQTNKRDYVSKYINYIFNDSVKAVYEEFRRGFYKMCDEDIIKLFHPEELKDVIVGNTDYDWKTFEKNARYEPGYNSSHPTIVMFWKAFHKLTLEEKKKFLVFLTGTDRLQMKDLNNMKITFCCPESWNERDPIRALTCFSVLFLPKYSTMETVEEALQEAINNNRGFG
B2: OASL-3xMYC fusion protein (pALAF022_hOASL-3xMYC) (protein, UniProt Q15646 1-514)
chain: MALMQELYSTPASRLDSFVAQWLQPHREWKEEVLDAVRTVEEFLRQEHFQGKRGLDQDVRVLKVVKVGSFGNGTVLRSTREVELVAFLSCFHSFQEAAKHHKDVLRLIWKTMWQSQDLLDLGLEDLRMEQRVPDALVFTIQTRGTAEPITVTIVPAYRALGPSLPNSQPPPEVYVSLIKACGGPGNFCPSFSELQRNFVKHRPTKLKSLLRLVKHWYQQYVKARSPRANLPPLYALELLTIYAWEMGTEEDENFMLDEGFTTVMDLLLEYEVICIYWTKYYTLHNAIIEDCVRKQLKKERPIILDPADPTLNVAEGYRWDIVAQRASQCLKQDCCYDNRENPISSWNVKRARDIHLTVEQRGYPDFNLIVNPYEPIRKVKEKIRRTRGYSGLQRLSFQVPGSERQLLSSRCSLAKYGIFSHTHIYLLETIPSEIQVFVKNPDGGSYAYAINPNSFILGLKQQIEDQQGLPKKQQQLEFQGQVLQDWLGLGIYGIQDSDTLILSKKKGEALFPAS
B3: hIFIT1-3xMYC fusion protein (pALAF016_hIFIT1-3xMYC) (protein, UniProt P09914 1-478)
chain: MSTNGDDHQVKDSLEQLRCHFTWELSIDDDEMPDLENRVLDQIEFLDTKYSVGIHNLLAYVKHLKGQNEEALKSLKEAENLMQEEHDNQANVRSLVTWGNFAWMYYHMGRLAEAQTYLDKVENICKKLSNPFRYRMECPEIDCEEGWALLKCGGKNYERAKACFEKVLEVDPENPESSAGYAISAYRLDGFKLATKNHKPFSLLPLRQAVRLNPDNGYIKVLLALKLQDEGQEAEGEKYIEEALANMSSQTYVFRYAAKFYRRKGSVDKALELLKKALQETPTSVLLHHQIGLCYKAQMIQIKEATKGQPRGQNREKLDKMIRSAIFHFESAVEKKPTFEVAHLDLARMYIEAGNHRKAEENFQKLLCMKPVVEETMQDIHFHYGRFQEFQKKSDVNAIIHYLKAIKIEQASLTRDKSINSLKKLVLRKLRRKALDLESLSLLGFVYKLEGNMNEALEYYERALRLAADFENSVRQGP

target: WT ORF1p-FLAG (L1.3 ORF1-encoded protein with a carboxyl-terminal FLAG epitope tag, expressed from pJM101/L1.3FLAG) in HEK293T cells (human) (UniProt Q9UN81); assay: co-IP; HEK293T cells co-transfected with pJM101/L1.3FLAG and a 3xMYC-tagged ISG expression vector; anti-FLAG M2 on Dynabeads Protein G, Lysis150 buffer, 4 °C; western blot with anti-MYC

binding, binds:
hDDX60L-3xMYC fusion protein (pALAF021_hDDX60L-3xMYC) (from UniProt Q5H9U9 1-1706), B1, B2, B3
